The values below come from the supplement of paper PMC4604168 (melanoma cell lines).

Holding throughout (assay): cleaved PARP positive nuclei fraction relative to DMSO control; melanoma cells; higher = more apoptosis
Holding throughout (conditions): library dose: low library concentration; 72 h

For assay [1], the system named is 501Mel.
Assay [2] concerns A101D.
Assay [3] relates to A2058.
The test system of assay [4] is A375.
The test system of assay [5] is C32.
Assay [6] has as its system CBRC008 (line from a melanoma biopsy).
Assay [7] deals with CBRC013 (line from a melanoma biopsy).
Assay [8] deals with CBRC014 (line from a melanoma biopsy).
Assay [9] has as its system CBRC016 (line from a melanoma biopsy).
Assay [10] has as its system CBRC017 (line from a melanoma biopsy).
For assay [11], the system named is COLO792.
The subject of assay [12] is COLO800.
Assay [13] relates to COLO829.
In assay [14] the test system is G361.
In assay [15] the test system is IPC-298.
In assay [16] the test system is IST-MEL1.
Assay [17] deals with LB2518-MEL.
Assay [18] has as its system LOXIMVI.
For assay [19], the system named is MEL-HO.

The list shows a part of the results. Many values rest on one well or one pass, so single values are uncertain.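 The apoptosis fraction was the count of cleaved-PARP antibody-stained nuclei relative to all DNA-stained nuclei, imaged in 1,536-well plates. Screening doses were set so most cells survived, and baseline and induced cleaved-PARP levels vary greatly across cell lines.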

As to `CCCS(=O)(=O)Nc1ccc(F)c(C(=O)c2c[nH]c3ncc(Cl)cc23)c1F` + CN(C)S(=O)(=O)c1ccc2c(c1)/C(=C/c1cc3c([nH]1)CCCC3)C(=O)N2 [SU6656] (first compound 0.08 µM, partner dose 0.4 µM), the “cleaved PARP positive nuclei fraction” value in [1] was determined as 79.5%; in [2] it was 76.5%; in assay [3], 82.2%; in assay [4] it was 164%; in assay [5], 189%; in assay [6], 127%. Moreover, the “cleaved PARP positive nuclei fraction” value in assay [7] is 74.5%; in assay [8], 126%; in [9] it was 179%; in assay [10], 108%; in assay [11] it was 190%; in assay [12], 76.2%. For the same compound, the “cleaved PARP positive nuclei fraction” value in assay [13] turned out to be 109%; in [14], 137%; in assay [15] it was 99.2%; in assay [16], 119%; in [17] it was 184%; in assay [18], 65.8%. In addition, the “cleaved PARP positive nuclei fraction” value in assay [19] came out at 109%.

With `CCCS(=O)(=O)Nc1ccc(F)c(C(=O)c2c[nH]c3ncc(Cl)cc23)c1F` + CC1(C)NC(=O)N(c2ccc([N+](=O)[O-])c(C(F)(F)F)c2)C1=O [nilutamide] (first compound 0.08 µM, partner dose 1 µM), the “cleaved PARP positive nuclei fraction” value is 79.8% in assay [1]; 89.7% in [2]; 112% in assay [3]; 204% in assay [4]; 81.5% in assay [5]; 143% in assay [6]. Further, the “cleaved PARP positive nuclei fraction” value was determined as 61.3% in assay [7]; 88.2% in assay [8]; 110% in [9]; 106% in assay [10]; 102% in assay [11]; 97.2% in assay [12]. Moreover, the “cleaved PARP positive nuclei fraction” value in assay [13] was 185%; in assay [14], 174%; in assay [15], 61.3%; in assay [16] it was 298%; in assay [17], 43.6%; in [18], 57.8%. Besides, the “cleaved PARP positive nuclei fraction” value in assay [19] came out at 225%.

For the compound `Nc1ccn([C@@H]2O[C@H](CO)[C@@H](O)C2(F)F)c(=O)n1` [gemcitabine] + O=C(Nc1cccc(Cl)c1)Nc1ncc(CCNc2ncnc3ccsc23)s1 [SNS314] (first compound 0.0004 µM, partner dose 0.0008 µM), the “cleaved PARP positive nuclei fraction” value in assay [1] is 101%; in [2], 40.5%; in [3], 120%; in [4] it was 97.9%; in [5], 92.2%; in [6] it was 86.5%. The “cleaved PARP positive nuclei fraction” value was 122% in assay [7]; 147% in assay [8]; 169% in assay [9]; 99.2% in [10]; 28.2% in assay [11]; 73.9% in assay [12]. The “cleaved PARP positive nuclei fraction” value turned out to be 83% in assay [13]; 94.3% in assay [14]; 195% in assay [15]; 93.6% in assay [16]; 85.8% in assay [17]; 182% in [18]. Moreover, the “cleaved PARP positive nuclei fraction” value in assay [19] turned out to be 70.1%.

Take `O=C(O)[C@@H]1[O][Sb](=[O])([O][Sb]2(=[O])[O][C@H]([C@H](O)CO)[C@H](O)[C@H](C(=O)O)[O]2)[O][C@H]([C@H](O)CO)[C@@H]1O` (stereo partly drawn) [stibogluconate] + O=C(O)c1ccc(-c2c[nH]c3ncc(-c4ccccc4)cc23)cc1C1CCCC1 [GSK650394] (first compound 2 µM, partner dose 0.16 µM): the “cleaved PARP positive nuclei fraction” value in assay [1] was determined as 76%; in [2], 152%; in assay [3] it was 91.1%; in assay [4], 79.1%; in assay [5] it was 154%; in [6], 694%. Moreover, the “cleaved PARP positive nuclei fraction” value is 71% in assay [7]; 112% in assay [8]; 138% in [9]; 102% in [10]; 117% in assay [11]; 73.3% in assay [12]. Besides, the “cleaved PARP positive nuclei fraction” value is 73.4% in assay [13]; 94.9% in assay [14]; 87.6% in [15]; 95.1% in [16]; 43.8% in [17]; 65.3% in assay [18]. Further, in [19], the “cleaved PARP positive nuclei fraction” value worked out at 71%.

`CNC(=O)c1cc(Oc2ccc(NC(=O)Nc3ccc(Cl)c(C(F)(F)F)c3)cc2)ccn1` [sorafenib] + COc1cc(Nc2ncc(F)c(Nc3ccc4c(n3)NC(=O)C(C)(C)O4)n2)cc(OC)c1OC [Tamatinib] (first compound 0.4 µM, partner dose 0.4 µM): the “cleaved PARP positive nuclei fraction” value in assay [1] was found to be 129%; in assay [2], 97%; in assay [3], 182%; in assay [4] it was 89.8%; in [5], 150%; in [6], 135%. The “cleaved PARP positive nuclei fraction” value in assay [7] is 115%; in assay [8], 84.1%; in [9] it was 85.6%; in assay [10], 90.2%; in assay [11], 132%; in assay [12], 45.4%. For the same compound, the “cleaved PARP positive nuclei fraction” value in assay [13] was determined as 68.6%; in assay [14] it was 77%; in [15], 118%; in assay [16], 88.5%; in assay [17], 87.7%; in assay [18], 82.8%. Moreover, the “cleaved PARP positive nuclei fraction” value in [19] amounted to 112%.

`C=C(c1ccc(C(=O)O)cc1)c1cc2c(cc1C)C(C)(C)CCC2(C)C` [Bexarotene] + NCC(=O)Nc1ccc(-n2nc(C(F)(F)F)cc2-c2ccc3c(ccc4ccccc43)c2)cc1 [OSU03012] (first compound 2 µM, partner dose 1 µM): the “cleaved PARP positive nuclei fraction” value in assay [1] was determined as 751%; in assay [2] it was 214%; in [3] it was 73.4%; in assay [4] it was 4210%; in assay [5], 120%; in assay [6] it was 240%. Further, the “cleaved PARP positive nuclei fraction” value amounted to 220% in assay [7]; 109% in assay [8]; 89.8% in assay [9]; 130% in assay [10]; 72.8% in assay [11]; 138% in [12]. Besides, the “cleaved PARP positive nuclei fraction” value is 38.4% in [13]; 91.3% in assay [14]; 109% in [15]; 112% in assay [16]; 114% in [17]; 39.6% in assay [18]. Further, in [19], the “cleaved PARP positive nuclei fraction” value turned out to be 56.7%.

Take `O=C(O)[C@@H]1[O][Sb](=[O])([O][Sb]2(=[O])[O][C@H]([C@H](O)CO)[C@H](O)[C@H](C(=O)O)[O]2)[O][C@H]([C@H](O)CO)[C@@H]1O` (stereo partly drawn) [stibogluconate] + O=C(CCCCCCC(=O)Nc1ccccc1)NO [vorinostat] (first compound 2 µM, partner dose 0.08 µM): the “cleaved PARP positive nuclei fraction” value was determined as 371% in assay [1]; 70% in assay [2]; 29.5% in assay [3]; 63.6% in [4]; 103% in assay [5]; 53.5% in assay [6]. The “cleaved PARP positive nuclei fraction” value in assay [7] worked out at 124%; in assay [8], 83.8%; in assay [9], 106%; in [10] it was 95.4%; in assay [11], 77.4%; in [12], 41%. Moreover, the “cleaved PARP positive nuclei fraction” value came out at 58.6% in assay [13]; 47.1% in assay [14]; 94.7% in [15]; 63.1% in assay [16]; 63.6% in assay [17]; 71.9% in assay [18]. In [19], the “cleaved PARP positive nuclei fraction” value was 148%.
